Reference: PubChem BioAssay AID493014 (National Center for Advancing Translational Sciences (NCATS), 2011)
The other results are listed elsewhere or left out. These are further read-outs of the screen, such as a control signal, another cell line or another target. No call is given for them. Compounds called inactive in the main read-out are mostly missing here. Words in brackets tell the shape of the fitted curve; partial curves, single points and poor fits give uncertain potencies.

Test: qHTS Assay to Find Inhibitors of Chronic Active B-Cell Receptor Signaling
Conditions: ABC-DLBCL IkBa-CBG/CBR reporter, luminescence ratio (green luciferase fused to IkBa over red control in TMD8 lymphoma cells), 4 h
Procedure, shortened: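 Doxycycline induced both beetle luciferases in TMD8 lymphoma cells; IKK-driven degradation limits the IkappaBalpha-fused green signal, while red luminescence normalises for cell number and nonspecific effects. Compounds tested up to 46 uM, 4 hrs.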

[1] = measured here: CBR red luminescence, cell number
[2] = measured here: IkBa-CBG green luminescence

O=C(Nc1cccc(S(=O)(=O)N2CCOCC2)c1)c1cc(=O)[nH]c2ccccc12
AC50 [1]: 13 µM [rising, single point]

O=C(Oc1ccc(Cl)c2cccnc12)N1CCCCCC1
AC50 [1]: 18.4 µM [rising, partial curve, poor fit]

CCOc1ccc(NC(=O)C(C)Oc2ccc(C#N)cc2)cc1S(=O)(=O)N1CCCC1 (stereo not drawn)
AC50 [1]: 0.82 µM [rising, full curve, poor fit]

C/C(=N/NC(=O)c1ccoc1C)c1cccc(NC(=O)C(F)(F)F)c1
AC50 [1]: 25.9 µM [falling, partial curve, poor fit]

CC(C)N(C(=O)COC(=O)c1ccccc1C(=O)c1ccc(Cl)c([N+](=O)[O-])c1)C(C)C
AC50 [1]: 15.8 µM [falling, partial curve, poor fit]

CC(C)(C)N1C(=O)c2ccc(C(=O)Nc3cc(C(=O)O)cc(C(=O)O)c3)cc2C1=O
AC50 [1]: 22.4 µM [falling, single point]

COc1ccc(Br)c(C(=O)Nc2nc3ccccc3[nH]2)c1
AC50 [1]: 2.51 µM [falling, partial curve, poor fit]

C[C@@]12CC(=O)NC1N(C(=O)c1cccc(C(F)(F)F)c1)C(c1ccccc1OC(=O)c1cccc(C(F)(F)F)c1)C2 (stereo partly drawn)
AC50 [1]: 14.6 µM [falling, partial curve]

CCOc1ccc(-c2csc(NC(=O)CSCC(=O)O)n2)c2ccccc12
AC50 [1]: 11.2 µM [falling, partial curve]

Cc1cccc(C(=O)NCCCN2CCCC2=O)c1
AC50 [1]: 29.1 µM [rising, single point]

O=C(OCc1ccc(F)cc1)c1ccc2ccccc2n1
AC50 [1]: 7.94 µM [rising, partial curve, poor fit]

Cc1nn(C)c(=O)n1-c1ccccc1
AC50 [1]: 3.55 µM [rising, partial curve, poor fit]

CC(NC(=O)c1cc(COc2c(F)cccc2F)on1)c1cnn(-c2ccccc2)c1 (stereo not drawn)
AC50 [1]: 3.55 µM [rising, partial curve, poor fit]

Cc1c(N2C(=O)/C(=C\c3ccccc3O)SC2=S)c(=O)n(-c2ccccc2)n1C
AC50 [1]: 22.4 µM [falling, single point]

O=C(O)CSc1cc(C(=O)c2ccccc2O)cn2c(=O)c3c4c(sc3nc12)CCCC4
AC50 [1]: 3.55 µM [falling, single point]

N#Cc1cn(-c2ccccc2)nc1-c1ccc2c(c1)OCCO2
AC50 [1]: 2.59 µM [rising, full curve]

COc1ccc2nc(NC(=S)N(C)C)sc2c1
AC50 [1]: 20.6 µM [falling, single point]

Fc1ccc(Cn2nnnc2C(c2cccs2)N2CCCCCC2)cc1 (stereo not drawn)
AC50 [1]: 32.6 µM [falling, single point]

CC(C)(C)Nc1nc(NCc2cccnc2)nc(N2CCOCC2)n1
AC50 [1]: 20.6 µM [rising, single point]

COc1ccc(CNC(=O)c2cc(-c3ccco3)on2)cc1
AC50 [1]: 0.501 µM [falling, full curve]

Cc1nc(Nc2ccc3c(c2)OCO3)c2oc3ccccc3c2n1
AC50 [1]: 10 µM [falling, partial curve, poor fit]

O=C(NCc1ccco1)/C(=C\c1ccco1)NC(=O)c1ccccc1Cl
AC50 [1]: 3.55 µM [falling, single point]

Cc1cccc(C)c1NC(=O)CS(=O)CC(=O)NC1CCCc2ccccc21 (stereo not drawn)
AC50 [1]: 23.1 µM [rising, single point]

COc1ccc([N+](=O)[O-])cc1N(CC(O)CN1CCCCC1)S(=O)(=O)c1ccc(C)cc1 (stereo not drawn)
AC50 [1]: 11.2 µM [falling, partial curve, poor fit]

COC(=O)c1c(-c2cc(OC)cc(OC)c2)sc2ccc(OC)cc12
AC50 [1]: 29.1 µM [falling, single point]

COc1cnc(-c2ccccc2)nc1Oc1ccc(C(C)(C)C)cc1
AC50 [1]: 35.5 µM [falling, single point]

CCOc1ccc(-c2noc(CCCC(=O)NCC3CCCO3)n2)cc1OC (stereo not drawn)
AC50 [1]: 14.1 µM [falling, partial curve, poor fit]

Cc1cc(NC(=O)C2CCCC2)n(-c2nc3ccccc3[nH]2)n1
AC50 [1]: 0.112 µM [falling, full curve, poor fit]

CCOc1cc(/C=N/NS(=O)(=O)c2ccccc2)ccc1OS(=O)(=O)c1ccc(C)cc1
AC50 [1]: 4.61 µM [falling, single point]

COc1ccc(CCC(=O)Nc2cc(S(=O)(=O)N3CCOCC3)ccc2OC(C)C)cc1
AC50 [2]: 29.1 µM [falling, partial curve, poor fit]

O=C(/C=C(\O)c1ccccc1)C(=O)NNC(=O)c1ccccc1
AC50 [1]: 4.47 µM [falling, partial curve]

Cc1cccc(NC(=O)CCn2nc(-c3ccccc3)c3ccccc3c2=O)c1
AC50 [1]: 35.5 µM [falling, single point]

CCC(=O)Nc1cccc(NC(=O)c2ccc3c(c2)OCO3)c1
AC50 [1]: 6.51 µM [falling, partial curve]

NS(=O)(=O)c1ccc(CCNCc2ccccc2OCc2ccc(Cl)cc2)cc1
AC50 [1]: 17.8 µM [falling, single point]

O=C(Nc1ccccn1)c1cccc(S(=O)(=O)N2CCCCC2)c1
AC50 [2]: 23.1 µM [rising, partial curve, poor fit]

COCCn1c(Cc2ccccc2)nnc1SCC(=O)N1CCCCC1C (stereo not drawn)
AC50 [1]: 3.66 µM [falling, partial curve, poor fit]

CC1(c2ccccc2)NC(=O)N(CC(=O)Nc2ccc(Cl)c(S(=O)(=O)N3CCCCC3)c2)C1=O (stereo not drawn)
AC50 [1]: 3.98 µM [rising, partial curve, poor fit]

N#CC1=C(N)N(c2ccc(F)cc2)C2=C(C1c1ccc(O)cc1)S(=O)(=O)CC2 (stereo not drawn)
AC50 [1]: 5.62 µM [falling, partial curve]

O=C(Nc1nccs1)C1CCN(S(=O)(=O)c2ccc(Cl)c(C(F)(F)F)c2)CC1
AC50 [1]: 5.17 µM [falling, single point]

CC(C)N1CCc2c(sc(NC(=O)c3nc4ccccc4s3)c2C(N)=O)C1
AC50 [1]: 2.82 µM [falling, partial curve, poor fit]

O=C(Cc1ccsc1)NNC(=O)c1ccc(F)cc1
AC50 [1]: 18.4 µM [falling, single point]

COc1ccc(/C=C2\SC(=S)N(CCC(=O)N(CCO)c3ccccc3)C2=O)cc1OC
AC50 [1]: 11.2 µM [falling, partial curve]

O=C1CCCCCN1Cc1nnc(SCc2nc3ccccc3s2)n1-c1ccccn1
AC50 [1]: 0.794 µM [rising, full curve, poor fit]

O=C(Nc1cccc(S(=O)(=O)N2CCCCC2)c1)c1ccc(Cl)nc1
AC50 [1]: 7.31 µM [falling, partial curve, poor fit]

O=C(c1ccc(Cl)c(Cl)c1)c1cnc(Nc2ccccc2)s1
AC50 [1]: 0.708 µM [falling, partial curve, poor fit]

NC(=S)N/N=C/c1ccc(C(F)(F)F)cc1
AC50 [1]: 1.3 µM [falling, partial curve, poor fit]

COc1ccc(N(Cc2cc3ccccc3[nH]c2=O)S(C)(=O)=O)cc1
AC50 [1]: 9.2 µM [falling, partial curve]

CCCCn1c(N)c(N(CCC(C)C)C(=O)CSc2nnc3ccccn23)c(=O)[nH]c1=O
AC50 [1]: 7.31 µM [rising, partial curve, poor fit]

O=S(=O)(NCc1ccc(Cl)cc1)c1cccc2cccnc12
AC50 [1]: 0.562 µM [falling, full curve, poor fit]

Cc1ccc(-c2noc(CCC(=O)N3CCCC3)n2)cc1
AC50 [1]: 11.2 µM [rising, partial curve, poor fit]

O=C(CCN1C(=O)/C(=C/C=C/c2ccccc2)SC1=S)Nc1nc2ccccc2s1
AC50 [1]: 6.51 µM [falling, partial curve]

C/C(=N\NC(=O)CC(C)C)c1c(C(F)(F)F)[nH]n(-c2nc3ccccc3s2)c1=O
AC50 [1]: 10 µM [falling, partial curve, poor fit]

O=C1C=C(/C=C/c2ccccc2)C[C@@H](c2ccc3c(c2)OCO3)C1
AC50 [1]: 29.1 µM [rising, single point]

COc1cccc(C2CC(=O)Nc3c2c(=O)nc2c(C)cccn32)c1OC (stereo not drawn)
AC50 [1]: 0.316 µM [rising, partial curve, poor fit]

CC(=O)c1cccc(OCC(=O)NC2CCCCCC2)c1
AC50 [1]: 20.6 µM [falling, single point]

COC(=O)c1cc(OC)c(OC)cc1NC(=O)c1cc(OC)cc(OC)c1
AC50 [1]: 3.16 µM [falling, partial curve]

CCc1cccc2c(C(=O)C(NCCCOC)c3ccccc3)c[nH]c12 (stereo not drawn)
AC50 [1]: 10 µM [falling, partial curve]

COc1cccc(NC(=O)c2ccc(NC(=O)C(C)C)cc2)c1
AC50 [2]: 11.2 µM [rising, partial curve, poor fit]

COc1ccc(C2(CNC(=O)c3ccccc3[N+](=O)[O-])CCOCC2)cc1
AC50 [1]: 28.2 µM [rising, single point]

Cn1c(=O)c2c(nc3n2CCCN3CCc2ccccc2)n(C)c1=O
AC50 [1]: 2.51 µM [falling, full curve, poor fit]

CSc1cccc(N/C(=N/S(=O)(=O)c2ccccc2)NN)c1
AC50 [1]: 8.91 µM [falling, single point]

Cc1ccc(NC(=O)Nc2ccc(F)c(Cl)c2)cc1
AC50 [1]: 14.1 µM [falling, single point]

Cc1[nH]c2ccccc2c1C(c1ccncc1)N1CCN(c2ccc(F)cc2)CC1 (stereo not drawn)
AC50 [1]: 16.4 µM [falling, single point]
